System: human PKD2 channel proteins (WT or C331S)
Experiment: Thermal stability assay (FSEC) of purified PKD2 channel proteins
Conditions: presence or absence of NS1643
Method: Thermal stability assay. Approximately 9 μg of purified human PKD2 channel proteins (WT or C331S) in 30 μl buffer composed of 20 mM HEPES 150 mM NaCl, 2 mM CaCl2), 0.5 mM TCEP and 0.5 mM DDM (n-Dodecyl β-D-maltoside), at pH 7.4, were incubated at 4° C.-90° C. (4° C., room temperature, 30° C., 35.2° C., 39.3° C., 44.9° C., 49° C., 54° C., 60° C., 65.5° C., 69.4° C., 75° C., 79.3° C., 84° C., and 90° C.) for 10 minutes in a thermal cycler. To reduce the C331-C344 disulfide bond in the PKD2 channel, 10 mM GSH was added to all the buffers during purification and thermal stability assay. The treated channel samples were then diluted 10 times with the same buffer followed by centrifugation for 30 min at 40,000 rpm. 30 μl of each cleared channel samples were separated on an analytical size exclusion column (Superose™ 6 5/150 GL, GE Healthcare) at 0.3 ml/min flow rate. Proteins were detected by Tryptophan fluorescence. The FSEC-based thermostability experiments were performed in triplicates for each temperature point. The integrated area of the channel tetramer peak at different temperature points is normalized to that at 4° C. to generate the thermal stability plot.
We tested the thermal stability of PKD2 and the C331S variant in the presence or absence of NS1643. (See FIG. 33). We also performed Rosetta modeling. (See FIG. 35).

Question: `O=C(Nc1cc(C(F)(F)F)ccc1O)Nc1cc(C(F)(F)F)ccc1O` [NS1643, 1,3-bis[2-hydroxy-5-(trifluoromethyl)phenyl]urea] was tested. Which “Thermal stability of PKD2 and C331S in the presence of compound” value did it give?
Answer: stabilizes the structure of PKD2
